{"sequences": {"note": "The chains behind the UniProt entries cited, without tags or fusion partners. Where a name states a change or a piece, a line headed by the entry shows the natural chain unless it says otherwise.", "UniProt P51450": "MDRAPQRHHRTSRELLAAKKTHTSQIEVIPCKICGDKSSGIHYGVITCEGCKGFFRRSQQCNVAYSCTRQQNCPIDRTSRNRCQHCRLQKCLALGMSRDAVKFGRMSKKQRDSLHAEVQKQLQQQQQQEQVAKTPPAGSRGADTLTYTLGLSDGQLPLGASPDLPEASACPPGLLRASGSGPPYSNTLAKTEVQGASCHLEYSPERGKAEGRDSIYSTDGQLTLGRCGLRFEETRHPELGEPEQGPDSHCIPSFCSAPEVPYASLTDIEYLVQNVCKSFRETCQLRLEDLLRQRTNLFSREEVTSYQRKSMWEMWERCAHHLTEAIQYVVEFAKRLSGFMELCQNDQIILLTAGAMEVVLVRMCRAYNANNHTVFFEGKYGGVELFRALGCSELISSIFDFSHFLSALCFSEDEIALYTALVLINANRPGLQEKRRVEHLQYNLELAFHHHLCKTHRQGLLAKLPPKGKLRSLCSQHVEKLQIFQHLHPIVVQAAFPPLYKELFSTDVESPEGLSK"}, "source": "PubChem BioAssay AID2551", "about": "(National Center for Advancing Translational Sciences (NCATS), 2010)", "note": "The campaign covered roughly 310,000 compounds. About 17,000 (5.5%) were called active. Inconclusive means that the source gave no clear call. Such entries were picked first, then a sample of the others. Calls follow the shape of the dose curve; as a rule, active = well fitted inhibition curve with a large enough effect; inconclusive = small, poorly fitted or top-dose-only effect, or effect the other way; inactive = no such curve, though single readings can be large or run the other way. Potencies of inconclusive entries are doubtful fits and often do not repeat. Some structures have more than one record in an assay (separate samples or runs), and their calls can disagree. % is scaled to controls: 0 for no effect and ±100 for the full control effect; potency is read from the fitted curve at half-maximal effect.", "data": [{"target": "Nuclear receptor ROR-gamma (Mus musculus) (UniProt P51450)", "test": "qHTS for inhibitors of ROR gamma transcriptional activity; also: nearly all actives have a fitted effect of over 60% in size", "details": "Drosophila S2 Gal4-RORgamma UAS-luciferase reporter, 20 h; activity change, negative = inhibition: at 53.6 µM (top of the series)", "procedure,_shortened": "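ROR gamma transcriptional activity was tracked as Gal4-UAS luciferase output in stably transfected Drosophila Schneider cells, with compound added 1 hr before 700 uM copper sulfate induction and a 20 hr ambient-temperature incubation.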", "values": [{"compound": "CCCCCC(=O)NC(=S)Nc1ccc(Cl)cn1", "Potency": "active: 7.08 µM"}, {"compound": "Cc1nc(N)nc(-c2ccccc2O)n1", "Potency": "inconclusive: 3.98 µM [activator, full curve, poor fit]"}, {"compound": "CCOc1cc(S(=O)(=O)NCc2ccc3c(c2)OCO3)c(C)cc1C", "Potency": "inconclusive: 35.5 µM [activator, single point]"}, {"compound": "Cc1ccccc1C(=O)N1CCN(c2ccc(NC(=O)c3cccs3)cc2)CC1", "Potency": "inconclusive: 20 µM [activator, single point]"}, {"compound": "O=C(O)c1cccc(-n2c(-c3cnccn3)n[nH]c2=S)c1", "activity change, negative = inhibition": "inactive: -18.4%"}, {"compound": "N#Cc1cccc(NC(=O)Cn2cnc(S(=O)(=O)N3CCc4ccccc43)c2)c1", "Potency": "inconclusive: 35.5 µM [activator, single point]"}, {"compound": "COc1ccc(-c2n[nH]c(C)c2-c2ccc(OC)c(OC)c2)c(O)c1", "Potency": "active: 10 µM"}, {"compound": "Cc1cc(C)n(C(C)CNC(=O)c2ccc3c(c2)OCO3)n1", "note": "(centres undefined)", "activity change, negative = inhibition": "inactive: -4.52%"}, {"compound": "CCOC(=O)COc1ccccc1C1Nc2ccccc2C(=O)N1c1cccc(Cl)c1", "note": "(centres undefined)", "Potency": "inconclusive: 2.82 µM [activator, partial curve]"}, {"compound": "O=C(N/N=C/C=C/c1ccccc1[N+](=O)[O-])c1cc(-c2ccccc2)n[nH]1", "Potency": "active: 7.08 µM"}, {"compound": "O=C1c2ccccc2CN1CCNC(=S)NC1CCCCC1", "Potency": "active: 17.8 µM"}, {"compound": "COC(=O)c1c(NC(=O)CN2CCCc3ccccc32)sc(C)c1C", "Potency": "inconclusive: 15.8 µM [inhibitor, single point]"}, {"compound": "O=c1[nH]c(O)c(/C=C2\\C=Nc3ccc(Br)cc32)[nH]1", "Potency": "inconclusive: 12.6 µM [activator, single point]"}, {"compound": "COc1cc(O)c2c(c1)oc(=O)c1c3cc(O)c(O)cc3oc21", "Potency": "active: 12.6 µM"}, {"compound": "CCN1C2=C(C(=O)CCC2)C(c2ccc(O)c(Br)c2)C2=C1CCCC2=O", "activity change, negative = inhibition": "inactive: 25.3%"}, {"compound": "C/C(N)=C(/C#N)C(=O)COC(=O)[C@@H](NC(=O)c1ccccc1Cl)C(C)C", "activity change, negative = inhibition": "inactive: 20.5%"}, {"compound": "O=C(C1CCCN(S(=O)(=O)c2ccc(Br)s2)C1)N1CCN(c2ccccc2)CC1", "note": "(centres undefined)", "Potency": "inconclusive: 35.5 µM [activator, single point]"}, {"compound": "CC(C)(C)C(=O)Cn1c(=N)n(Cc2ccccc2)c2ccccc21", "Potency": "inconclusive: 5.62 µM [inhibitor, single point]"}, {"compound": "CCOC(=O)c1c(Cc2ccc(Cl)cc2)c[nH]c1C", "Potency": "inconclusive: 15.8 µM [activator, single point]"}, {"compound": "Cc1onc(-c2ccccc2Cl)c1C(=O)N1CCc2ccccc2C1", "Potency": "inconclusive: 14.1 µM [activator, single point]"}, {"compound": "CCc1nnc(NC(=O)C2CCN(S(=O)(=O)Cc3ccccc3)CC2)s1", "Potency": "inconclusive: 3.16 µM [activator, full curve]"}, {"compound": "Cc1cc(C(=O)Nc2nc3c(C)cccc3s2)c(C)o1", "Potency": "inconclusive: 35.5 µM [inhibitor, single point]"}, {"compound": "Cc1onc(-c2c(F)cccc2Cl)c1C(=O)N1CCc2ccccc21", "activity change, negative = inhibition": "inactive: -0.818%"}, {"compound": "O=C(/C=C/c1ccccc1)CC(O)(c1ccccc1)C(F)(F)F", "note": "(centres undefined)", "Potency": "inconclusive: 35.5 µM [inhibitor, single point]"}, {"compound": "CC(CC(=O)Nc1ccc(S(=O)(=O)N2CCOCC2)cc1)c1ccccc1", "note": "(centres undefined)", "activity change, negative = inhibition": "inactive: 23%"}, {"compound": "Cc1cccc(C(=O)NC(CC(=O)O)c2ccc(OC3CCCC3)cc2)c1[N+](=O)[O-]", "note": "(centres undefined)", "Potency": "inconclusive: 35.5 µM [activator, single point]"}, {"compound": "COC(Cc1n[nH]c(=S)n1-c1ccc(Cl)cc1)OC", "Potency": "inconclusive: 12.6 µM [inhibitor, single point]"}, {"compound": "CC(=O)Nc1sc2c(c1CN1CCCC1)CCCC2", "activity change, negative = inhibition": "inactive: -9.64%"}, {"compound": "CCN(CC)c1ccc(/C=C2\\C(=O)N(c3nnc(C)c(=O)[nH]3)N=C2C)cc1", "Potency": "inconclusive: 5.01 µM [inhibitor, single point]"}, {"compound": "CC(=O)Nc1ccc(NC(=O)CCCSc2nc3ccccc3s2)cc1", "Potency": "active: 7.08 µM"}, {"compound": "C=C(C)CSC1=C(C#N)C(c2ccccc2Cl)CC(=O)N1", "note": "(centres undefined)", "activity change, negative = inhibition": "inactive: 13.3%"}, {"compound": "CN1CCN(C(c2ccccn2)c2cc(Cl)c3cccnc3c2O)CC1", "note": "(centres undefined)", "Potency": "active: 1.41 µM"}, {"compound": "CC(C)(C)c1ccc(-c2c(C#N)c(N)nc3c2CCCC3)s1", "activity change, negative = inhibition": "inactive: -1.59%"}, {"compound": "CCOc1cc(CNc2ccc3c(c2)OCCO3)cc(Br)c1OCC", "Potency": "inconclusive: 14.1 µM [activator, partial curve]"}, {"compound": "O=C(N/N=C/c1cn(-c2ccccc2)nc1-c1ccccc1)c1ccco1", "Potency": "active: 6.31 µM"}, {"compound": "CCc1ccc2c(CN(CC)Cc3nc4ccccc4c(=O)[nH]3)cc(=O)oc2c1", "Potency": "active: 8.91 µM"}, {"compound": "CC(Oc1ccc([N+](=O)[O-])cc1Cl)C(=O)Nc1ccc(C(N)=O)cc1", "note": "(centres undefined)", "activity change, negative = inhibition": "inactive: 35.7%"}, {"compound": "Cc1ccc(S(=O)(=O)N[C@H](C(=O)OCC(=O)NC(=O)Nc2ccc3c(c2)OCCO3)C(C)C)cc1", "Potency": "inconclusive: 17.8 µM [activator, single point]"}, {"compound": "Cc1ccc(Nc2nc(N)nc(CN3CCc4ccccc4C3)n2)cc1", "Potency": "inconclusive: 3.16 µM [inhibitor, partial curve, poor fit]"}, {"compound": "Cc1ccc(C)c(N2CN(CCC3=CCCCC3)CNC2=S)c1", "Potency": "active: 3.16 µM"}, {"compound": "COc1ccc(N=c2scc(-c3ccc(OC)cc3)n2CCO)cc1", "Potency": "inconclusive: 10 µM [activator, partial curve]"}, {"compound": "O=C(NC(=S)NNC(=O)c1ccccc1[N+](=O)[O-])c1ccc(Br)cc1", "Potency": "active: 6.31 µM"}, {"compound": "O=C(N/N=C/c1ccccn1)c1sc2ccccc2c1Cl", "Potency": "active: 2.82 µM"}, {"compound": "CCC(C)[C@H](NC(=O)c1cc2cc(Cl)ccc2n1C)C(=O)N1CCC(C(=O)O)CC1", "note": "(some centres undefined)", "activity change, negative = inhibition": "inactive: 18.2%"}, {"compound": "Nc1ncnc(NCc2ccc(F)cc2)c1[N+](=O)[O-]", "Potency": "inconclusive: 3.98 µM [inhibitor, full curve, poor fit]"}, {"compound": "COc1cc(SC)ccc1C(=O)Nc1ncc(C)s1", "Potency": "active: 2.51 µM"}, {"compound": "Cc1oc(-c2cccc(Cl)c2)nc1CN1CCCC(C(=O)NCc2ccco2)C1", "note": "(centres undefined)", "activity change, negative = inhibition": "inactive: 16.3%"}, {"compound": "O=C(Cn1nc(C(F)F)cc1C(F)F)NNC(=S)Nc1ccc([N+](=O)[O-])cc1", "Potency": "active: 10 µM"}, {"compound": "CCOC(=O)c1ccc2c(c1)nc(SCc1cn3ccsc3n1)n2CC", "Potency": "inconclusive: 22.4 µM [inhibitor, single point]"}]}]}
